From paper doi:10.1101/262154
Results are given in words; binding and its absence hold for the method and conditions named. Some binding calls cover weakened binding; strength is not graded here.

Amino acid sequences for entries named in this document (tags omitted).
UniProt Q9VDD3: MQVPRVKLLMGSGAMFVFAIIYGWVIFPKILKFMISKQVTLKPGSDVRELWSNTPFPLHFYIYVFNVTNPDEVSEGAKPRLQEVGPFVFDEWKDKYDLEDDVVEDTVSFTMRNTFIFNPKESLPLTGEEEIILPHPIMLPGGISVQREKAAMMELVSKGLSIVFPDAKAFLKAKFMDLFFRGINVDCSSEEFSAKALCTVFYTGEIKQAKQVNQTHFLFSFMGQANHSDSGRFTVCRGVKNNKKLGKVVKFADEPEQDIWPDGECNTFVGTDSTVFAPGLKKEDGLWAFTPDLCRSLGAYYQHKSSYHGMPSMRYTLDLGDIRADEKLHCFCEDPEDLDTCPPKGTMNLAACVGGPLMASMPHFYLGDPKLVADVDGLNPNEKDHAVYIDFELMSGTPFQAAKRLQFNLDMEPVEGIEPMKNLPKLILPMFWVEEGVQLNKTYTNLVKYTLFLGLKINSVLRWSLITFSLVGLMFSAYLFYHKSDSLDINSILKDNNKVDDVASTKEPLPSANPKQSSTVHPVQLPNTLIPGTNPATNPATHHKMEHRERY

How the values were obtained:
[1] = target: T1, Drosophila melanogaster odorant receptor 67d (DmelOR67d) (D. melanogaster) (UniProt Q9VT92); assay: two-hybrid
T1 sequence: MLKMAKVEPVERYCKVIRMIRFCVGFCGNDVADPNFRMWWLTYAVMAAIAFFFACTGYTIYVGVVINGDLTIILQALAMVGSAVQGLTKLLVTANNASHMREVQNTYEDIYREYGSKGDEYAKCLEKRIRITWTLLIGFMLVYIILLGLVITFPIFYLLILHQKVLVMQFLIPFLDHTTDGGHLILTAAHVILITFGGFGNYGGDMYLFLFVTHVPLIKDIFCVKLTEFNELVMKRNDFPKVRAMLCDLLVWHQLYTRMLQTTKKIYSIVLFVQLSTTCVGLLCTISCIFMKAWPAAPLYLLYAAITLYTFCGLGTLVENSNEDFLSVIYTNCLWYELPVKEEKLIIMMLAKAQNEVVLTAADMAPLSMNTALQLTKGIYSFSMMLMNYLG

[2] = target: T2, Drosophila melanogaster odorant receptor 22a (DmelOR22a) (D. melanogaster) (UniProt P81909); assay: two-hybrid
T2 sequence: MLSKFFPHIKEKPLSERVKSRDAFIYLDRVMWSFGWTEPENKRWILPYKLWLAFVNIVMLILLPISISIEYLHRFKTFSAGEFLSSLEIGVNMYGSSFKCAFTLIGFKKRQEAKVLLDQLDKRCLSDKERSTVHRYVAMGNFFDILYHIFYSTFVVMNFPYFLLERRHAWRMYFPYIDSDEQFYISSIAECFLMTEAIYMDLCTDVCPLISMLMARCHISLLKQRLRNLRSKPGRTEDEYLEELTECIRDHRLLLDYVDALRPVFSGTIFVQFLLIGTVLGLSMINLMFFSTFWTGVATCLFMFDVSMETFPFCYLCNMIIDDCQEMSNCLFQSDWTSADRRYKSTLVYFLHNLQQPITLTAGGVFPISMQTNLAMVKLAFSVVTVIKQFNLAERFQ

binding [1]: binds weakly | binding [2]: binds weakly
Substance: Drosophila melanogaster sensory neuron membrane protein 1 (DmelSNMP1) (from UniProt Q9VDD3 1-551)
